Source: ChEMBL document CHEMBL3988442, “University of Dundee, Small-Polar-MMV Screening Library” (2021).

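Viability assay of Plasmodium falciparum sporozoites; the read-out is not stated. The concentration is filed as 10 mM, unlikely as a test dose, so the dose is not known. Direction is inferred from retests: higher values go with lower viability. Strong results were mostly tested again. Size under these conditions: about 34,000 compounds, about 280 of them at 50% or above in at least one test.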

Each number is a percent effect as filed. How 0% and 100% were set is not recorded. Most values in the screen are low, and negative values occur. This is an unselected part of the compounds tested. Two or more numbers in one place are separate tests of the same structure; such repeats can differ widely.

compound	percent effect
Cl.c1nnc(Nc2cncc(C3CCCN3)n2)s1 (configuration not stated)	5.929%
CCCNC(=O)COc1cccc(-c2nc(C(C)C)no2)c1	0.8057%
CN(Cc1ccco1)C1CCC12CCN(C(=O)c1ccncc1)CC2 (configuration not stated)	4.106%
Cc1occc1C(=O)N1CCC2(CC1)C(c1cnn(C)c1)CC(=O)N2C (configuration not stated)	-11.89%
Cc1cnn(CC2CCCN2C(=O)c2ccccc2-n2cnnn2)c1 (configuration not stated)	19.09%
CSc1ccc(C(=O)N2CC(=O)N(CC(C)(C)C)CC(O)C2)cc1 (configuration not stated)	-31.34%
O=C(O)C(F)(F)F.[H][C@@]12CCN(c3cccnc3)C[C@]1([H])CN(C(=O)c1ccncc1)C2	6.229%
CC(NC(=O)NCCCN1CCCC1=O)c1nncn1C (configuration not stated)	-34.09% & -17.93% & -14.04%
Cc1cc(C)n(CC2CCCN2C(=O)c2cc[nH]n2)n1 (configuration not stated)	-15.04%
O=C(O)C(F)(F)F.[H][C@@]12COC[C@]1([H])[C@@H](OCC(=O)N(C)C)CN2Cc1ccc(CC)o1	-21.84%
COC(=O)CNC(=O)Cn1ccc2cccc(OC)c21	53.7% & 45.8%
Cn1cnnc1C1CCCN(C(=O)NCCn2ccnc2)C1 (configuration not stated)	8.694%
O=C(O)C(F)(F)F.[H][C@@]12CCN(Cc3ccc4c(c3)OCO4)C[C@]1([H])O[C@H](C(=O)N1CCCC1)C2	-11.44%
O=C(NCCc1ccccc1)c1cccc(S(=O)(=O)NC2CCOC2)c1 (configuration not stated)	-7.302%
O=C(O)C(F)(F)F.[H][C@]12C[C@H](C(=O)NC)N(S(C)(=O)=O)[C@@]1([H])CN(C(=O)c1ccncc1)C2	14.33%
COc1ccc(C(NCc2cccc(O)c2)C2CC2)cc1 (configuration not stated)	-0.7047% & -11.12%
Cc1cc(C)n(CC2CCCN2C(=O)c2ccc(N(C)C)nn2)n1 (configuration not stated)	-2.496%
CS(=O)(=O)NCC1CCCN(C(=O)c2ccc(Cl)o2)C1 (configuration not stated)	5.156%
N#Cc1c(SCCN2CCCCC2)sc2c(O)cc(O)nc12	19.81%
COc1ccnc(N2CCN(C(=O)c3ccc(Cl)o3)CC2)n1	-4.572%
Cc1cccc(NCCOc2cccc(C#N)c2)c1C(N)=O	7.338%
Cc1nc(C2CCCN(C(=O)Cn3ccccc3=O)C2)no1 (configuration not stated)	-3.627%
CC(C(=O)N1CCN(c2ccccc2Cl)CC1)n1cncn1 (configuration not stated)	2.864%
Cc1cn[nH]c1C1CCCCN1C(=O)CCN1CCCCCC1 (configuration not stated)	-4.476%
CN1CCOC(CN(C(=O)CN2CCCC2=O)c2nccs2)C1 (configuration not stated)	12.43%
Cc1noc(C)c1CN(C)C(=O)CN1CC(c2ccccc2)CC1=O (configuration not stated)	-3.395%
O=C([C@H]1CCCO1)N1CC[C@@H](O)[C@@H]1Cc1ccccc1	-9.386%
Cc1ccc(C(=O)NCc2ccnc(C3CCCOC3)n2)s1 (configuration not stated)	3.722%
[H][C@]12CCC[C@@]1(COC)CN(C(=O)COC1CCCC1)C2	1.969%
O=C(O)C(F)(F)F.O=C(O)C(F)(F)F.[H][C@@]12COC[C@]1(CNC(=O)c1ccno1)CN(Cc1cccnc1)C2	-8.42%
Cn1ccnc1CN1CCC(Cn2cc(-c3ccncc3)nn2)CC1	2.456%
O=C(c1ccc(F)cc1Cl)N1CCC(Nc2cccnn2)CC1	14.22%
Cc1noc(C(C)C)c1C(=O)NCC(c1ccsc1)N(C)C (configuration not stated)	-6.661%
CN(Cc1cccc(F)c1)C(=O)CS(=O)(=O)Cc1ccc(Cl)c(Cl)c1	5.351%
CCc1nc(C2CCCN2CC(=O)Nc2cc(C)on2)no1 (configuration not stated)	-2.147%
Cc1cccc(C2(CNC(=O)CO)CCCC2)c1	2.399%
CN1CC(=O)N(c2ccccc2)CC12CCN(Cc1cccnc1)C2.O=C(O)C(F)(F)F.O=C(O)C(F)(F)F.O=C(O)C(F)(F)F (configuration not stated)	-17.87%
FC(F)(F)Cn1ccnc1CN1CCCC1c1noc(C2CC2)n1 (configuration not stated)	-12.5%
COc1ccc(-c2c(C)nn3c(=N)c(C#N)n[nH]c23)cc1	-6.685%
CO[C@@H]1CO[C@@]2(CCCN(S(=O)(=O)c3ccccc3)C2)C1	-5.826%
CC(C)(C)CN1CCCC2(CCN(C(=O)c3ccc(O)nc3)C2)C1 (configuration not stated)	-4.796%
Cc1cnccc1-c1cc(NCCO)nc2[nH]ccc12	14.21%
CN1CCCC1CNC(=O)CCOc1ccc(Cl)cc1 (configuration not stated)	5.197%
CS(=O)(=O)N1CCC(C(=O)NC(Cc2ccsc2)c2cccnc2)CC1 (configuration not stated)	11.73%
Cc1ccc(CN2Cc3nccn3CC(CN(C)C)C2)s1.O=C(O)C(F)(F)F.O=C(O)C(F)(F)F (configuration not stated)	-8.442%
O=C(O)C(F)(F)F.[H][C@]12CCC[C@@]1(COc1ccccn1)CN(C(=O)c1cocn1)C2	21.41%
Cc1ccoc1C(=O)N1CCn2cc(CN3CCCC3)nc2C1	-3.007%
Cc1cc(C)n(C2CCN(Cc3c(-c4cc(C)on4)nn(C)c3Cl)C2)n1 (configuration not stated)	-6.284%
CN(C)c1ccc(CNC(=O)NCCc2ccccn2)cn1	15.27%
CCc1nc(C(=O)N2CCN(C)CC2C)nn1-c1ccccc1Cl (configuration not stated)	-8.883%
O=C(O)C(F)(F)F.[H][C@@]12CCCO[C@]1([H])[C@@H](NC(=O)c1cccn1C)CN2Cc1ccoc1	7.005%
CCc1c(C(=O)NC2CCS(=O)(=O)C2)cnn1-c1ccc(C)cc1 (configuration not stated)	5.993%
[H][C@@]12CN(C(=O)CCc3ccccc3)C[C@@]1([H])OCC(=O)N2	21.56%
Cc1cnc(C(=O)N2CCCC(c3c(C)c(=O)nc4n3CCC4)C2)cn1.Cl (configuration not stated)	2.552%
NC1CCN(C2CCN(c3ccc(-c4ccco4)cc3)CC2)CC1	9.178% & -1.67%
O=c1c2ccc(Cl)cc2ncn1CCCN1CCCCC1CO (configuration not stated)	-9.615%
COc1ccccc1NC(=O)NCCCC(=O)Nc1cn[nH]c1	3.663%
Cc1ccc(S(=O)(=O)NCCc2cccnc2)cc1C	-32.6%
COc1ccc(CN(C)c2nc3c(cnn3C)c(=O)[nH]2)c(OC)c1	11.2%
O=C(C1=CCCC1)N1CCC2(CC1)CC(Oc1cccnc1)CO2.O=C(O)C(F)(F)F (configuration not stated)	-3.094%
CSCc1cccc(S(=O)(=O)NCCCN2CCOCC2)c1	-12%
Cc1cnn(C2CCCN(C(=O)c3c(C)oc4nc[nH]c(=O)c34)C2)c1 (configuration not stated)	-24.24% & -21.2%
CNC(=O)c1ccc(S(=O)(=O)NCc2cccnc2N(C)C)cc1	5.094%
CN1CCC(NC(=O)Nc2ccc(Cl)c(F)c2)C1=O (configuration not stated)	-1.243%
COc1ncccc1CN1CCC2(CC1)CC(OCC1CC1)CO2.O=C(O)C(F)(F)F (configuration not stated)	8.839%
COc1ccc(F)cc1C(C(=O)O)N1CCSCC1 (configuration not stated)	-8.304%
COCC(=O)N1CCCC1(C)c1nc(C)cc(O)n1 (configuration not stated)	14.55%
CCN1CCN(C(=O)c2cnn(-c3ccccc3Cl)c2)CC1	-1.6%
CC(C)(C)c1n[nH]c(C2CN(C(=O)c3cc(C4CC4)[nH]n3)CCO2)n1 (configuration not stated)	2.059%
COc1ncccc1CNCc1c(C)nn(C)c1N(C)C	8.395%
O=C(O)C(F)(F)F.[H][C@]12CN(CCN(C)C)C(=O)[C@@]1([H])CN(S(=O)(=O)c1ccccc1)C2	4.619%
CC(C)c1nc(CN2CCCC(O)C2)cs1 (configuration not stated)	0.6689%
O=C(O)c1nnn(-c2cc(F)cc(F)c2)c1-c1ccncc1	11.9%
O=C(CCc1cnn(-c2ccccc2)c1)N1CCCC(n2cccn2)C1 (configuration not stated)	3.627%
COc1ccc(-c2nc(CN3CCc4cnc(C)nc4C3)no2)cc1	10.55%
O=C(NCC1CCCO1)c1c(-n2cnnn2)sc2c1CCC2 (configuration not stated)	-11.61%
CCNC(=O)N1CCC2(C1)c1ccccc1S(=O)(=O)N2CCC(C)C (configuration not stated)	-4.004%